Our source for the binding values is publication PMC10933417.

Protein sequences, listed by entry. Tags and fused reporters are not part of them. Lines headed by an entry give the natural chain unless they say otherwise; changes in a name come on top.
UniProt Q13535: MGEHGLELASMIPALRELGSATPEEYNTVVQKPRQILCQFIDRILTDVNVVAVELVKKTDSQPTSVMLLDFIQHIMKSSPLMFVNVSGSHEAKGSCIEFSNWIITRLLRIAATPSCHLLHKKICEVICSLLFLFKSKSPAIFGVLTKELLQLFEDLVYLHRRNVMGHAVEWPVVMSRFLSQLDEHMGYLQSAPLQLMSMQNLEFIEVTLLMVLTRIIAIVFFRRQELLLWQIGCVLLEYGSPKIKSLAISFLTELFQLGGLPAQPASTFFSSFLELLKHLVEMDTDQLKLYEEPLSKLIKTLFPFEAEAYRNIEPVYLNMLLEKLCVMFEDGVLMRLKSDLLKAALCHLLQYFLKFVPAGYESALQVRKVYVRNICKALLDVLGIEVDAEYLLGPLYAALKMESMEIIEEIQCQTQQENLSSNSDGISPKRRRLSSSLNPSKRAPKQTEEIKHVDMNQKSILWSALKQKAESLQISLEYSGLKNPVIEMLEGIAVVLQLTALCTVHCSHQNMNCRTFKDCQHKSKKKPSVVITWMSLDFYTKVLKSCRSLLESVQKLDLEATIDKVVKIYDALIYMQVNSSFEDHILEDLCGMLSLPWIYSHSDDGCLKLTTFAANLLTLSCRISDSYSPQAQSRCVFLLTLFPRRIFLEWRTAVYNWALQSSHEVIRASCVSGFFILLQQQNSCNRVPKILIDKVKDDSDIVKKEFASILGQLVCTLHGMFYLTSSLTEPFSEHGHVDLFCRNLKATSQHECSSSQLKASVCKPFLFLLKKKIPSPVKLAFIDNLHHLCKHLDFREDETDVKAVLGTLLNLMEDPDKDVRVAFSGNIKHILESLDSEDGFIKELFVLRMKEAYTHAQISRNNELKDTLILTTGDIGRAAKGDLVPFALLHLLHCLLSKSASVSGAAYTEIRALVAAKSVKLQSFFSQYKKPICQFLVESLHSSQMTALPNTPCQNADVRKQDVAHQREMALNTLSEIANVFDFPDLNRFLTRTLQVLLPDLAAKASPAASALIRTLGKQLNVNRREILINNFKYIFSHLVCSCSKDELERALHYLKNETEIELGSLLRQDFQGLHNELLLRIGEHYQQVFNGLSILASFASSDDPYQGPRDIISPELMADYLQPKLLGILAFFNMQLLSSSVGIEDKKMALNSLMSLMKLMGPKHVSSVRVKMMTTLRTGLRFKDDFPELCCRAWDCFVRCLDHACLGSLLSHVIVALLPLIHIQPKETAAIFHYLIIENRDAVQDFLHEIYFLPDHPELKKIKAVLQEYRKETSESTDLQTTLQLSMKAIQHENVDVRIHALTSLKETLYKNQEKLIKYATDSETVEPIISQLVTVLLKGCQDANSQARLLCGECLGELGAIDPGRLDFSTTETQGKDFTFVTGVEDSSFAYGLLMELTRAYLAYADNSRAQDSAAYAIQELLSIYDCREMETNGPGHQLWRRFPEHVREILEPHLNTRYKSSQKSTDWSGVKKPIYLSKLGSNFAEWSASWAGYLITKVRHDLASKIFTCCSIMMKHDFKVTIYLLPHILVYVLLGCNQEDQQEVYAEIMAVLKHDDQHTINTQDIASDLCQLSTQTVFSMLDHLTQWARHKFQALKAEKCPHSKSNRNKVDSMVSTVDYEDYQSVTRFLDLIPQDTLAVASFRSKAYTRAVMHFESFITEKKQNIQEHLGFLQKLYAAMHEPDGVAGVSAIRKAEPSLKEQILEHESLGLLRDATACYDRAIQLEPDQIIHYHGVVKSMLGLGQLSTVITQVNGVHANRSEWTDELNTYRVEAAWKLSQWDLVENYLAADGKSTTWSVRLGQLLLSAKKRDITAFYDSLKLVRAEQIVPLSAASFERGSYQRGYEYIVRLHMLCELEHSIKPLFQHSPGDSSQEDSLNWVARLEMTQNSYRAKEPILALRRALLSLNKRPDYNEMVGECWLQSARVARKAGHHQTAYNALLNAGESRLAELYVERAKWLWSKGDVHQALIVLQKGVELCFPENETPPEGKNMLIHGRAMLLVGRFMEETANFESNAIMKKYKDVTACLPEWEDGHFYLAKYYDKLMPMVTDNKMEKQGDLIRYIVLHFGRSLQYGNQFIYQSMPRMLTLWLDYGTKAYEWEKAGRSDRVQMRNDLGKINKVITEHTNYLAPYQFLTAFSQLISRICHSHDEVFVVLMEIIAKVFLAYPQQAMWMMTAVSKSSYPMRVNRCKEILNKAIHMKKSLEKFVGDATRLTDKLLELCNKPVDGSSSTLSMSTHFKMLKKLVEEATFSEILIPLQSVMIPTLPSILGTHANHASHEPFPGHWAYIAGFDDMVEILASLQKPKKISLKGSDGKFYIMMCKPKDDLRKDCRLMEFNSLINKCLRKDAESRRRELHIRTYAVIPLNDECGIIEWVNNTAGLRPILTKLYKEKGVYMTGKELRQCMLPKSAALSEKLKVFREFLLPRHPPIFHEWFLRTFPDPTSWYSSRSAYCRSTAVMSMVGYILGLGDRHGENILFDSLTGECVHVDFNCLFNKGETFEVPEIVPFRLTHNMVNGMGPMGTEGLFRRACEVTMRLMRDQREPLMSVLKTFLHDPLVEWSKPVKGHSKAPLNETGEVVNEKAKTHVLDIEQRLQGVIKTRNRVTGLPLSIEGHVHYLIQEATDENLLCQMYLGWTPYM
UniProt Q13547: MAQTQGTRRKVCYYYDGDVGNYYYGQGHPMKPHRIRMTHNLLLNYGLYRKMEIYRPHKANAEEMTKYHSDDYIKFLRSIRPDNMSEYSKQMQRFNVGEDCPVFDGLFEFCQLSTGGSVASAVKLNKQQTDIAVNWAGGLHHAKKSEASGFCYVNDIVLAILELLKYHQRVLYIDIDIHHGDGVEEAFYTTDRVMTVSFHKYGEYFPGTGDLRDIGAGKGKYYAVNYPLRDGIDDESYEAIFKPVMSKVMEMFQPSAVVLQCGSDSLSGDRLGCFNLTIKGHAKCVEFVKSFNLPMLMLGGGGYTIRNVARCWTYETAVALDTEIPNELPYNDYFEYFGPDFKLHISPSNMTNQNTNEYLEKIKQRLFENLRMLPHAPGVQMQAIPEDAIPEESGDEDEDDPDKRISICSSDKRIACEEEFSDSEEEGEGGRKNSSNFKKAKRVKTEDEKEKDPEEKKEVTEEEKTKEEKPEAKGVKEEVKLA
UniProt Q09028: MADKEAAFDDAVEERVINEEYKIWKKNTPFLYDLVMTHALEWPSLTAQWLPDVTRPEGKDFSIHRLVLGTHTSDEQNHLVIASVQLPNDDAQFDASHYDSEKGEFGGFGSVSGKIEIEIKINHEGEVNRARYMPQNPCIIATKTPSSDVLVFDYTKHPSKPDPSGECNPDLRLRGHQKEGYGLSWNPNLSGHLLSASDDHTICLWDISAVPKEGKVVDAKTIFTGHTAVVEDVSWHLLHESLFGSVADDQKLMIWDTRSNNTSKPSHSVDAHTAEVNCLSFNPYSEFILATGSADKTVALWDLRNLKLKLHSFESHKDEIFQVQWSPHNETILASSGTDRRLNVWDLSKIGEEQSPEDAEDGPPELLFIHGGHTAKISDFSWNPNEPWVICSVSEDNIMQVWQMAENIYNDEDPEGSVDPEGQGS

Results are given in words; binding and its absence hold for the method and conditions named. In cells and extracts the contact can be indirect. Some results given as binding are weak or reduced against the parent protein; the word gives no strength. For part of these data: Where a sequence is shown, tags or fusion partners need not be part of it.

The target of test [1] is T1, Myc-DDK-tagged ZNF827 (wild type) (UniProt Q17R98).
T1 sequence: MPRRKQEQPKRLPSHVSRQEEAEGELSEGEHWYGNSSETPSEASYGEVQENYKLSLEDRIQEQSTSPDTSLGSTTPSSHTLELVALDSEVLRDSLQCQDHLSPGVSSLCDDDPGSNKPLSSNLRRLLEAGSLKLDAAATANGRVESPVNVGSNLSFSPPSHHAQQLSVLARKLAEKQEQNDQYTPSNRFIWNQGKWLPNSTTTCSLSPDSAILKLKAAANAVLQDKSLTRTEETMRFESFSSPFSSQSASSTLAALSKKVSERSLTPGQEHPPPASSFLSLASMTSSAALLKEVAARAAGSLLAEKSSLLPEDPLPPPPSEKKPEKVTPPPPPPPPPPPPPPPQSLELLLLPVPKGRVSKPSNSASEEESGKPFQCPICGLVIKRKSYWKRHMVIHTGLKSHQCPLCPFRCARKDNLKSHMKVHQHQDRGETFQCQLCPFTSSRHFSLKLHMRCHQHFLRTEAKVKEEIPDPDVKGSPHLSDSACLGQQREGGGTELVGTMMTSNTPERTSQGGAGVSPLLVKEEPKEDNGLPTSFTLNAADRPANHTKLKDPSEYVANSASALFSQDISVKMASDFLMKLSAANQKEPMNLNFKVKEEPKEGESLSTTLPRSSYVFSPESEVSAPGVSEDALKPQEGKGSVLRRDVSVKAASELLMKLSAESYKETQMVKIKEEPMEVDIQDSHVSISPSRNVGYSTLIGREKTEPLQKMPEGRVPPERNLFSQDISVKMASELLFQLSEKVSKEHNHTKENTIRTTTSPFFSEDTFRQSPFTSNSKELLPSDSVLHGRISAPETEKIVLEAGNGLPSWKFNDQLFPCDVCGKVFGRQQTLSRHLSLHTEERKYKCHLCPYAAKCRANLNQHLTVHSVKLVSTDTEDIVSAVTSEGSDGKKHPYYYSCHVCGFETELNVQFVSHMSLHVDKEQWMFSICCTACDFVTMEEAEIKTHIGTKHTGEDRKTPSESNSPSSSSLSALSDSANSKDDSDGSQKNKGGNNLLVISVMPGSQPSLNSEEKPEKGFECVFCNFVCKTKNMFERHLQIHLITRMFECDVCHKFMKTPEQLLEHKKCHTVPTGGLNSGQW
Kind of test: co-IP; after treatment with benzonase; IP with a Myc antibody, western blot of the partners; U-2 OS cells overexpressing Myc-tagged ZNF827, ZNF827 ΔRRK and ZNF827 ZnFΔ1-3. On the technique in general: A western blot detects proteins with antibodies after separation by electrophoresis.

For test [2], the target named is T2, ZNF827 (overexpressed; precipitated with a direct ZNF827 antibody) (UniProt Q17R98).
T2 sequence: T1 sequence
The experiment in a line: co-IP; IP with a direct ZNF827 antibody, western blot of the partners; U-2 OS cells overexpressing ZNF827; after treatment with the nuclease benzonase.

The target in test [3] is T2, ZNF827 (overexpressed; precipitated with a direct ZNF827 antibody). Kind of test: co-IP; IP with a direct ZNF827 antibody, western blot of the partners; U-2 OS cells overexpressing ZNF827 (Fig. 1E) and HT1080 cells (Supplementary Fig. 1F); without benzonase.
For test [4] the target is unchanged. The experiment in a line: co-IP; co-IP of ZNF827 (Supplementary Fig. 2A); cells, antibody and construct not shown.

On to “Ataxia telangiectasia mutated and Rad3-related (ATR) (from UniProt Q13535 1-2644)”, for which the binding entry in test [1] was “binds”.

In the case of “HDAC1 (NuRD component) (from UniProt Q13547 1-482)”, the binding entry in test [2] and in test [3] was “binds” throughout.

Regarding “RBBP4 (NuRD component) (from UniProt Q09028 1-425)”, the binding entry in test [2] and in test [3] was “binds” each time.

B1: Rad9 (9-1-1 DNA damage sensor complex component) (protein, UniProt Q99638 1-391)
chain: MKCLVTGGNVKVLGKAVHSLSRIGDELYLEPLEDGLSLRTVNSSRSAYACFLFAPLFFQQYQAATPGQDLLRCKILMKSFLSVFRSLAMLEKTVEKCCISLNGRSSRLVVQLHCKFGVRKTHNLSFQDCESLQAVFDPASCPHMLRAPARVLGEAVLPFSPALAEVTLGIGRGRRVILRSYHEEEADSTAKAMVTEMCLGEEDFQQLQAQEGVAITFCLKEFRGLLSFAESANLNLSIHFDAPGRPAIFTIKDSLLDGHFVLATLSDTDSHSQDLGSPERHQPVPQLQAHSTPHPDDFANDDIDSYMIAMETTIGNEGSRVLPSISLSPGPQPPKSPGPHSEEEDEAEPSTVPGTPPPKKFRSLFFGSILAPVRSPQGPSPVLAEDSEGEG
B1: in test [4], the binding entry is given as “binds”.

B2: ATR-interacting protein (ATRIP) (protein, UniProt Q8WXE1 1-791)
chain: MAGTSAPGSKRRSEPPAPRPGPPPGTGHPPSKRARGFSAAAAPDPDDPFGAHGDFTADDLEELDTLASQALSQCPAAARDVSSDHKVHRLLDGMSKNPSGKNRETVPIKDNFELEVLQAQYKELKEKMKVMEEEVLIKNGEIKILRDSLHQTESVLEEQRRSHFLLEQEKTQALSDKEKEFSKKLQSLQSELQFKDAEMNELRTKLQTSERANKLAAPSVSHVSPRKNPSVVIKPEACSPQFGKTSFPTKESFSANMSLPHPCQTESGYKPLVGREDSKPHSLRGDSIKQEEAQKSFVDSWRQRSNTQGSILINLLLKQPLIPGSSLSLCHLLSSSSESPAGTPLQPPGFGSTLAGMSGLRTTGSYDGSFSLSALREAQNLAFTGLNLVARNECSRDGDPAEGGRRAFPLCQLPGAVHFLPLVQFFIGLHCQALQDLAAAKRSGAPGDSPTHSSCVSSGVETNPEDSVCILEGFSVTALSILQHLVCHSGAVVSLLLSGVGADSAAGEGNRSLVHRLSDGDMTSALRGVADDQGQHPLLKMLLHLLAFSSAATGHLQASVLTQCLKVLVKLAENTSCDFLPRFQCVFQVLPKCLSPETPLPSVLLAVELLSLLADHDQLAPQLCSHSEGCLLLLLYMYITSRPDRVALETQWLQLEQEVVWLLAKLGVQSPLPPVTGSNCQCNVEVVRALTVMLHRQWLTVRRAGGPPRTDQQRRTVRCLRDTVLLLHGLSQKDKLFMMHCVEVLHQFDQVMPGVSMLIRGLPDVTDCEEAALDDLCAAETDVEDPEVECG
Take B2: the binding result in test [1] and in test [4] was “binds” each time.

B3: Ewing tumour-associated antigen 1 (ETAA1) (protein, UniProt Q9NY74 1-926)
chain: MSRRRKHDDSPSPKKTPHKTVAAEECGSVVEPGRRRLRSARGSWPCGAREGPPGPVRQREQPPTAALCSKSNPEERYETPKRALKMDSLSSSFSSPNDPDGQNDIFWDQNSPLTKQLGKGRKKQIYTTDSDEISHIVNRIAPQDEKPTTNSMLDMWIGETAIPCTPSVAKGKSRAKISCTKLKTQSQEEELMKLAKQFDKNMEELDVIQEQNKRNYDFTQMISETEILSNYKDNIQMWSLHNIVPEIDNATKKPIKGNTKISVANNQNSSQKPFDQIAEAAFNAIFDGSTQKCSGQLSQELPEAFWSTSNTTFVKTNALKEEKIITNETLVIEKLSNKTPRSLSSQVDTPIMTKSCVTSCTKEPETSNKYIDAFTTSDFEDDWENLLGSEPFAMQNIDMPELFPSKTAHVTDQKEICTFNSKTVKNTSRANTSPDARLGDSKVLQDLSSKTYDRELIDAEYRFSPNSNKSNKLSTGNKMKFENSSNKIVIQDEIQNCIVTSNLTKIKEDILTNSTEASERKSALNTRYSNEQKNKCILNQSIKAPVNTDLFGSANLGSKTSVSNPNQTSASKVGSFFDDWNDPSFANEIIKACHQLDNTWEADDVDDDLLYQACDDIERLTQQQDIRKDSKTSESICEINNNSEHGAKLTQQQDIRKDSKTSESICEINNNSEHGAKNMFAISKQGSNLVQSKHLNPGSISVQTSLTNSSQIDKPMKMEKGEMYGNSPRFLGATNLTMYSKISNCQINNLHVSYTNTDVPIQVNSSKLVLPGSSSLNVTSDHMNTEITTYKKKLSTNQPCHKTVTDEAQSNLNTTVGFSKFTFTRMKNSQILSQFNQNCITGSMSDTKITQGVEKKKGVNPLLEEAVGQQSLVKLSESLKQSSKEEEEKNRKCSPEEIQRKRQEALVRRMAKARASSVNAAPTSFL
Turning to B3, the binding result in test [1] is given as “binds”.
